# Data published in the supplement of paper PMC11438910.
# This is one part of the list. The signal is at background level for most entries.
# B1: 4-127.5 (protein)
# chain 1: QVQLQESGPGLVKPSETLSLTCAVSGYSISSGYGWSWIRQPPGKGLEWIGYIGGSDSSTNYNPSLKSRVTISKDTSKNQLSLKLRSVTAADTAVYYCGSRGAVAGLGGLDSWGQGLLVTVSS
# chain 2: QSVLTQPPSVSGAPGQRVTISCTGSSSNIGAGYGVQWYQQLPGTAPKLLIYENNKRPSGVFDRFSGSQSGTSGSLTITGLQSEDEADYYCQSYDSSLKAVLFGGGTRLTVL
# How the values were obtained:
# Test in all cases: fluorescence intensity of antibody binding to polysaccharide-coupled beads; higher = stronger binding
# [1] = molecular target: pneumococcal polysaccharide Pn25A
# [2] = molecular target: pneumococcal polysaccharide Pn25F
# [3] = molecular target: pneumococcal polysaccharide Pn27
# [4] = molecular target: pneumococcal polysaccharide Pn28A
# [5] = molecular target: pneumococcal polysaccharide Pn28F
# [6] = molecular target: pneumococcal polysaccharide Pn29
# [7] = molecular target: pneumococcal polysaccharide Pn3
# [8] = molecular target: pneumococcal polysaccharide Pn31
# [9] = molecular target: pneumococcal polysaccharide Pn32A
# [10] = molecular target: pneumococcal polysaccharide Pn32F
# [11] = molecular target: pneumococcal polysaccharide Pn33A
# [12] = molecular target: pneumococcal polysaccharide Pn33B
# [13] = antibody concentration 0.1 ng/mL
# [14] = antibody concentration 0.534724 ng/mL
# [15] = antibody concentration 2.8593 ng/mL
# [16] = antibody concentration 15.2894 ng/mL
# [17] = antibody concentration 81.7561 ng/mL
# [18] = antibody concentration 437.17 ng/mL
# [19] = antibody concentration 2337.65 ng/mL
# [20] = antibody concentration 12500 ng/mL
binder,measurement,setting,value
B1,fluorescence intensity,[1]; [13],25.5 MFI
same,fluorescence intensity,[1]; [14],24.5 MFI
same,fluorescence intensity,[1]; [15],25.5 MFI
same,fluorescence intensity,[1]; [16],25 MFI
same,fluorescence intensity,[1]; [17],24 MFI
same,fluorescence intensity,[1]; [18],25.2 MFI
same,fluorescence intensity,[1]; [19],29 MFI
same,fluorescence intensity,[1]; [20],31 MFI
same,fluorescence intensity,[2]; [13],30.8 MFI
same,fluorescence intensity,[2]; [14],32 MFI
same,fluorescence intensity,[2]; [15],31.5 MFI
same,fluorescence intensity,[2]; [16],30.8 MFI
same,fluorescence intensity,[2]; [17],32 MFI
same,fluorescence intensity,[2]; [18],32 MFI
same,fluorescence intensity,[2]; [19],31.5 MFI
same,fluorescence intensity,[2]; [20],42.5 MFI
same,fluorescence intensity,[3]; [13],17.5 MFI
same,fluorescence intensity,[3]; [14],18.5 MFI
same,fluorescence intensity,[3]; [15],17.5 MFI
same,fluorescence intensity,[3]; [16],17.8 MFI
same,fluorescence intensity,[3]; [17],18 MFI
same,fluorescence intensity,[3]; [18],17.8 MFI
same,fluorescence intensity,[3]; [19],24.5 MFI
same,fluorescence intensity,[3]; [20],124 MFI
same,fluorescence intensity,[4]; [13],28.8 MFI
same,fluorescence intensity,[4]; [14],29 MFI
same,fluorescence intensity,[4]; [15],29 MFI
same,fluorescence intensity,[4]; [16],28 MFI
same,fluorescence intensity,[4]; [17],26.2 MFI
same,fluorescence intensity,[4]; [18],27.5 MFI
same,fluorescence intensity,[4]; [19],29 MFI
same,fluorescence intensity,[4]; [20],33 MFI
same,fluorescence intensity,[5]; [13],31.5 MFI
same,fluorescence intensity,[5]; [14],30 MFI
same,fluorescence intensity,[5]; [15],31.5 MFI
same,fluorescence intensity,[5]; [16],30.5 MFI
same,fluorescence intensity,[5]; [17],30 MFI
same,fluorescence intensity,[5]; [18],31.5 MFI
same,fluorescence intensity,[5]; [19],33.5 MFI
same,fluorescence intensity,[5]; [20],54.5 MFI
same,fluorescence intensity,[6]; [13],17 MFI
same,fluorescence intensity,[6]; [14],16.5 MFI
same,fluorescence intensity,[6]; [15],17.5 MFI
same,fluorescence intensity,[6]; [16],17.5 MFI
same,fluorescence intensity,[6]; [17],16.5 MFI
same,fluorescence intensity,[6]; [18],17.5 MFI
same,fluorescence intensity,[6]; [19],21.5 MFI
same,fluorescence intensity,[6]; [20],65 MFI
same,fluorescence intensity,[7]; [13],14 MFI
same,fluorescence intensity,[7]; [14],16.5 MFI
same,fluorescence intensity,[7]; [15],37.5 MFI
same,fluorescence intensity,[7]; [16],150 MFI
same,fluorescence intensity,[7]; [17],1060 MFI
same,fluorescence intensity,[7]; [18],2800 MFI
same,fluorescence intensity,[7]; [19],11700 MFI
same,fluorescence intensity,[7]; [20],12200 MFI
same,fluorescence intensity,[8]; [13],15.5 MFI
same,fluorescence intensity,[8]; [14],16 MFI
same,fluorescence intensity,[8]; [15],13 MFI
same,fluorescence intensity,[8]; [16],14.5 MFI
same,fluorescence intensity,[8]; [17],14 MFI
same,fluorescence intensity,[8]; [18],16 MFI
same,fluorescence intensity,[8]; [19],18.5 MFI
same,fluorescence intensity,[8]; [20],56 MFI
same,fluorescence intensity,[9]; [13],16.5 MFI
same,fluorescence intensity,[9]; [14],18 MFI
same,fluorescence intensity,[9]; [15],17.5 MFI
same,fluorescence intensity,[9]; [16],18.5 MFI
same,fluorescence intensity,[9]; [17],19 MFI
same,fluorescence intensity,[9]; [18],18 MFI
same,fluorescence intensity,[9]; [19],20.5 MFI
same,fluorescence intensity,[9]; [20],34.5 MFI
same,fluorescence intensity,[10]; [13],26.8 MFI
same,fluorescence intensity,[10]; [14],29 MFI
same,fluorescence intensity,[10]; [15],27 MFI
same,fluorescence intensity,[10]; [16],28 MFI
same,fluorescence intensity,[10]; [17],31.5 MFI
same,fluorescence intensity,[10]; [18],29.5 MFI
same,fluorescence intensity,[10]; [19],37.5 MFI
same,fluorescence intensity,[10]; [20],44.5 MFI
same,fluorescence intensity,[11]; [13],19.5 MFI
same,fluorescence intensity,[11]; [14],18 MFI
same,fluorescence intensity,[11]; [15],19 MFI
same,fluorescence intensity,[11]; [16],20 MFI
same,fluorescence intensity,[11]; [17],19.8 MFI
same,fluorescence intensity,[11]; [18],25 MFI
same,fluorescence intensity,[11]; [19],89.2 MFI
same,fluorescence intensity,[11]; [20],829 MFI
same,fluorescence intensity,[12]; [13],18 MFI
same,fluorescence intensity,[12]; [14],18.5 MFI

# Nothing new here: entries from further up.
binder,measurement,setting,value
B1,fluorescence intensity,[5]; [17],30 MFI
same,fluorescence intensity,[5]; [18],31.5 MFI
same,fluorescence intensity,[5]; [19],33.5 MFI
same,fluorescence intensity,[5]; [20],54.5 MFI
same,fluorescence intensity,[6]; [13],17 MFI
same,fluorescence intensity,[6]; [14],16.5 MFI
same,fluorescence intensity,[6]; [15],17.5 MFI
